The target of this assay is recombinant Galectin-1 (UniProt P09382). As to the kind of experiment: co-IP; recombinant Gal-1 2 uM (pre-treated with DMSO 0.02% or LLS30 2 uM, 4 h, 4°C) mixed with 30 ug T cell membrane protein for 4 h at 4°C; precipitated with anti-Gal-1 on Protein A/G Sepharose overnight at 4°C; PBS wash; elution with 150 mM glycine pH 2.5; immunoblot for CD45; only the target purified. In general terms: In western blotting, separated proteins are transferred to a membrane and probed.

Protein sequences, listed by entry. Tags and fused reporters are not part of them. Residues count along the entry.
UniProt P09382: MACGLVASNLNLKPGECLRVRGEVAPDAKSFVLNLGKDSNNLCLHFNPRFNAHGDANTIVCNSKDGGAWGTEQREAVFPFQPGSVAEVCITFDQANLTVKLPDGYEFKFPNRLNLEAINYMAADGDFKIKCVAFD
UniProt P08575, residues 26-1306: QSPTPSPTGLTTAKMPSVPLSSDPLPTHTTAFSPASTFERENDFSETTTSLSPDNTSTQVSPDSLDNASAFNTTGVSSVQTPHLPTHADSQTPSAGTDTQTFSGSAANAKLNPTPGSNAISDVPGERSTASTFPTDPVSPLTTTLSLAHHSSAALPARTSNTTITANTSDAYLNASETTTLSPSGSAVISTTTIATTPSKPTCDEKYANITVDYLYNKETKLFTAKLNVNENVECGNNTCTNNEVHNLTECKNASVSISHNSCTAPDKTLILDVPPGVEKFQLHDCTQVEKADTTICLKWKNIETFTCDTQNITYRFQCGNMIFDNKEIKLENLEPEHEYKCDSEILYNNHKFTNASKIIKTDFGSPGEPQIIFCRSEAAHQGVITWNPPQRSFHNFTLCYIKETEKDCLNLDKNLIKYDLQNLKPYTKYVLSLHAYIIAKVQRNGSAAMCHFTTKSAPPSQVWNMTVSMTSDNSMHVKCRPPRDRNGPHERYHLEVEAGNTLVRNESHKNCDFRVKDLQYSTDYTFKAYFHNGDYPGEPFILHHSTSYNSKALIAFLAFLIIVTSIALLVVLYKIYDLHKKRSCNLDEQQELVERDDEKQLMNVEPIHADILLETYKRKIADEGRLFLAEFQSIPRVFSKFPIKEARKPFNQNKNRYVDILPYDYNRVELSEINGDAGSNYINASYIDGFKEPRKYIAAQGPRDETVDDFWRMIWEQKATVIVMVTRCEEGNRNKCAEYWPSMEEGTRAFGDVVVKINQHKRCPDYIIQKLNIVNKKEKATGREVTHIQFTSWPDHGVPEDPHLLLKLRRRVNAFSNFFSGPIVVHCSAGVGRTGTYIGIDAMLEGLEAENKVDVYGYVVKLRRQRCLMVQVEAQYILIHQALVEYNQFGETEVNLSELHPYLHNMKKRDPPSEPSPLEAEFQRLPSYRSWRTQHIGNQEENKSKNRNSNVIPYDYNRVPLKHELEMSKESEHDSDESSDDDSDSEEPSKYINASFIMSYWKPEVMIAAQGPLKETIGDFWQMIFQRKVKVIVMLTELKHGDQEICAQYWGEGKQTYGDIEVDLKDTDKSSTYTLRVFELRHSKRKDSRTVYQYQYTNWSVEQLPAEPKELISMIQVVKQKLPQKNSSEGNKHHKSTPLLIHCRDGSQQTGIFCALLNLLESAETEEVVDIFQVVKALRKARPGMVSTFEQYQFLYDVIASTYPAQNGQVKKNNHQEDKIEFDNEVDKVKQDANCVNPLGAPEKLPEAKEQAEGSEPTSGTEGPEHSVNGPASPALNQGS

These are yes or no findings as the source states them, for the method shown. In cells and extracts the contact can be indirect. Some entries that bind do so weakly or less than the wild type.

As to “CD45 (from UniProt P08575 26-1306) (receptor)”, the binding result is listed as “binds”.

The values are drawn from paper PMC11215701.
